From publication doi:10.1101/2022.06.26.497646 come the findings set out here.

Results are given in words; binding and its absence hold for the method and conditions named. Some results given as binding are weak or reduced against the parent protein; the word gives no strength.

In this experiment the target is T1, COX3b (Tetrahymena thermophila (endogenous)) (UniProt Q950Y6).
T1 sequence: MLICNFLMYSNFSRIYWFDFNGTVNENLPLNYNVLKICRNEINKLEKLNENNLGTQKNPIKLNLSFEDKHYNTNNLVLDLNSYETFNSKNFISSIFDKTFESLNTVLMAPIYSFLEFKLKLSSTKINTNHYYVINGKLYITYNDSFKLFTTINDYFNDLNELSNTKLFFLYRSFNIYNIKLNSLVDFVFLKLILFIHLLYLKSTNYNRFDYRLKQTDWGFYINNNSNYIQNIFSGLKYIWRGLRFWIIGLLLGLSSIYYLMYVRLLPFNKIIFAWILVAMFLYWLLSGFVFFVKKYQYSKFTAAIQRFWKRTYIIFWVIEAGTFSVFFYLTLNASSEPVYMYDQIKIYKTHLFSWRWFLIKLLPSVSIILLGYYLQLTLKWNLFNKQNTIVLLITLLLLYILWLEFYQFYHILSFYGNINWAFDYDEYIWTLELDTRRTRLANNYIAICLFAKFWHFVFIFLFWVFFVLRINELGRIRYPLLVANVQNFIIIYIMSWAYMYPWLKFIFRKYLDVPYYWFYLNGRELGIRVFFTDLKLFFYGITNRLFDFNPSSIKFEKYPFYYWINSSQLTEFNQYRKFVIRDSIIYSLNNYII
As to the kind of experiment: cryo-EM structure.

B1: COX3a (protein, UniProt Q950Y7 1-453)
chain: MTALFLHILWSISYIIINILYIFLSLLLSNNNEKIKQYNSNYFIKILLVLFYNKNLSFYKNLLSEDEISKIEFERLKNYPTLVLIHSNLNKLEKRNKIINSFINFKTKYRFYKFISTNFNLQTIIKNCNDKIIFSTLLYIVNLNYSFFYKTIKNTDLIVYLLANKFSILNDNIIVSKFNISKFNDYIKYINNTNSIDTYLENQIILGLNNNTNSNITKNINTKLLNSYSNLKNLVNITNNTFYLKKINDNYNTVINSEFLTYLKSNYKISFSASNIVKYLSDKSVNNSVILYLRKNKIFNKSRYSRNRQTYRTGAYWCLYVNIIAVVAFYFWFYKFTMNFGYLWWLLYSLILSFFFSRALKHRFYNPLNVMTEFKNGFMWFIIILINIFKPLLKLLENNYINLYNHLVIKYYQSFICNTLINKKKLEFNYILSSFKFIKELNNIIIISLNKLF
As for B1, the binding entry was “binds”.
